This note sets out measurements from publication PMC5496739.

Results are given in words; binding and its absence hold for the method and conditions named. Binding seen in cells or lysates may run through a third protein. Here binding means that the protein was enriched with, or labelled near, the bait; the list need not be complete.

In this test the target is T1, MEF-exophilin-8 (wild type) (mouse) (UniProt Q8K3I4).
T1 sequence: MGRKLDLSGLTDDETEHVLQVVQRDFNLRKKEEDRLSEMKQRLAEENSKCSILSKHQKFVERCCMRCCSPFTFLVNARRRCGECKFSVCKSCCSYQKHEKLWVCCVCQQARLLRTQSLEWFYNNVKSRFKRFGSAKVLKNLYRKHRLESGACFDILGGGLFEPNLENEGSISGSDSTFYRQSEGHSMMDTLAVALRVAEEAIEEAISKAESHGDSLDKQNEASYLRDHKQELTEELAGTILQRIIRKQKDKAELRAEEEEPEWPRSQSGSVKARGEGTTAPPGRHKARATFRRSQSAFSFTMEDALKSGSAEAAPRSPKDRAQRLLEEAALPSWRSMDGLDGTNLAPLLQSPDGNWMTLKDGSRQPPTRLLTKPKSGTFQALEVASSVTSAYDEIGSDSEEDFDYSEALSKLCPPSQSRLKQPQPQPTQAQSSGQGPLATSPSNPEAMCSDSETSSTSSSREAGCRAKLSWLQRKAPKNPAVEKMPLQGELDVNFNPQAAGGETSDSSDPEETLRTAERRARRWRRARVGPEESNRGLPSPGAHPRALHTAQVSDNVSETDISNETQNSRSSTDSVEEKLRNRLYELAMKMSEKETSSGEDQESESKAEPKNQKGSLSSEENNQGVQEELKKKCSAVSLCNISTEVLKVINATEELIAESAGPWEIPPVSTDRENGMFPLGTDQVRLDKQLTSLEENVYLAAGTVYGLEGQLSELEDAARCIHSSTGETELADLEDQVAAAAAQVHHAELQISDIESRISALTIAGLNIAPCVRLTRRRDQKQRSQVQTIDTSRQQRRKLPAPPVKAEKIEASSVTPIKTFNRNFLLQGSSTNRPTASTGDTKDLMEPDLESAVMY
Nature of the test: affinity purification with mass spectrometry; MIN6 cells expressing MEF-exophilin-8; anti-myc immunoprecipitation, TEV cleavage, anti-FLAG immunoprecipitation, FLAG peptide elution; SDS-PAGE, Oriole staining, bands analysed by nanoflow LC-MS/MS; control LacZ.

B1: RIM-BP2, endogenous in MIN6 cells (protein, UniProt Q80U40 1-1072)
chain: MREAAERRQQLELEHEQALAFLNAKQQEIQLLQQAQVEAKKEHEGAVQLLESKVRELEEKCRVQSEQFNLLSRDLEKFRQHTGSIDLLGSSSVALLDVPLAPGKPFPQYMNGLATSIHKGHEGPTGHYSVIGDYIPLSGDKLESPCVKPSFLLRSSSPRCRFESEMDNDRNSNNSKQSSSGKVHLCVARYSYNPFDGPNENPEAELPLTAGKYLYVYGDMDEDGFYEGELLDGQRGLVPSNFVDFIQDNESRLAGTLGSEQDQNFLNHSGISLERDSILHLHSPTQVDSGITDNGGGTLDVNIDDIGEDTVPYPRKITLIKQLAKSVIVGWEPPAVPPGWGTVSSYNVLVDKETRMSLALGRRTKALIEKLNTAACTYRISVQCVTSRGNSDELQCTLLVGKDVVVAPSQLRVDNITQISAQLSWLPTNSNYSHIIFLNEEELDIVKAARYKYQFFNLRPNMAYKVKVLAQPHQMPWQLPLEQREKKEACVEFSTLPAGPPAPPQDVTVHAGATAASVQVSWKPPALTPTGLSNGANVTGYGVYAKGQRVAEVIAPTADGTAVELIRLRSLEAKAVSVRTLSVQGESMDSALAAIPPDLLVPPAPHPRTAPPPKPLASDMDTKDQHLGPHVKVDESWEQSRSPGPAHGHMLEPPDMHSAGPGRRSPSPSRILPQPQGAPVSTTVAKAMAREAAQRVAESNRLEKRSLFLEQSSAGQYTNSDEEDGYASPEVKRRGTSVDDFLKGSELGKQPHCCHGDEYHTESSRGSDLSDIMEEDEEELYSEMQLEDGGRRRPSGTSHNALKILGNSTLMGRADRMEHVSRRYSHSGGGSHRHRPAMAPSIDEYTGRDHLSPDFYDESETDPGAEELPARIFVALFDYDPLTMSPNPDAAEEELPFKEGQIIKVYGDKDADGFYRGETCARLGLIPCNMVSEIHADDEEMMDQLLRQGFLPLNTPVEKIERSRRSGRGHSVPTRRMVALYDYDPRESSPNVDVEAELPFCTGDIITVFGEIDEDGFYYGELNGQKGLVPSNFLEEVPDDVEVHLSDAPPHYSHDPPMRSKAKRKKSVHFTP
Regarding B1, the binding entry is listed as “binds”.
